Test results as given in the supplement of paper PMC10849652.
This is one part of the list.

Amino acid sequences for entries named in this document (tags omitted). A change or cut given only in a name is not applied to a line headed by its entry.
UniProt Q2TB90: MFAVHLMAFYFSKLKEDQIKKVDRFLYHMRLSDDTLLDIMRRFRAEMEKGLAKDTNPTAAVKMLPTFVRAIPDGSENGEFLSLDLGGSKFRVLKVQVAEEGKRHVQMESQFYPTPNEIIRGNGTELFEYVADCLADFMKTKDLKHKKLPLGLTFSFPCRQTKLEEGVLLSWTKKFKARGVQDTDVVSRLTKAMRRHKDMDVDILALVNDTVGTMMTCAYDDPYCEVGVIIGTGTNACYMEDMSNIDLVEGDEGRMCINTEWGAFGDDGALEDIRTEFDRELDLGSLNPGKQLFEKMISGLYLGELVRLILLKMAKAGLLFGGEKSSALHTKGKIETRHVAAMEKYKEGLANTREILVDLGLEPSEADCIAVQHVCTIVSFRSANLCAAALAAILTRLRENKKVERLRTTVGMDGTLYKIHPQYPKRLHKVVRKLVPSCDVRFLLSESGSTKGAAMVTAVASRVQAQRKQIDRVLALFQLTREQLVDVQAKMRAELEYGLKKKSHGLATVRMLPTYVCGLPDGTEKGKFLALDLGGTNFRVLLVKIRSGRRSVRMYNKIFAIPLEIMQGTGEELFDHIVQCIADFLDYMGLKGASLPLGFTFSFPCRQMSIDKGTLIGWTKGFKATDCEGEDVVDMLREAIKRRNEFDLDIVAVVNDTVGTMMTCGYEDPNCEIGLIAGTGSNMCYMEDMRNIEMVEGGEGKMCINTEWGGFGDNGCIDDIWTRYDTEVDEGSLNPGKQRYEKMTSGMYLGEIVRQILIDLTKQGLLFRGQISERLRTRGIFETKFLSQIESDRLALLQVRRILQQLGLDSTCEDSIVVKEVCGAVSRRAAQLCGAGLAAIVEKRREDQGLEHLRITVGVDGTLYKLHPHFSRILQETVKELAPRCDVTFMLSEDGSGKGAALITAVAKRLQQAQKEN
UniProt Q99729: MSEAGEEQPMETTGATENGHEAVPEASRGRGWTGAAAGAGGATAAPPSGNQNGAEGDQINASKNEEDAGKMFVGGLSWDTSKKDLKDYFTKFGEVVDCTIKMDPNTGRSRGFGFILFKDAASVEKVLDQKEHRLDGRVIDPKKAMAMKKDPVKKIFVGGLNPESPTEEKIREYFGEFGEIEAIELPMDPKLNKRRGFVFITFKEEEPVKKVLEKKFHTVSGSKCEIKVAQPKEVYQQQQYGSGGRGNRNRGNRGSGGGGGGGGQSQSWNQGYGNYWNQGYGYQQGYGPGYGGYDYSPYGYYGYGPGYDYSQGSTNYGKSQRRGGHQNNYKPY
UniProt P22626: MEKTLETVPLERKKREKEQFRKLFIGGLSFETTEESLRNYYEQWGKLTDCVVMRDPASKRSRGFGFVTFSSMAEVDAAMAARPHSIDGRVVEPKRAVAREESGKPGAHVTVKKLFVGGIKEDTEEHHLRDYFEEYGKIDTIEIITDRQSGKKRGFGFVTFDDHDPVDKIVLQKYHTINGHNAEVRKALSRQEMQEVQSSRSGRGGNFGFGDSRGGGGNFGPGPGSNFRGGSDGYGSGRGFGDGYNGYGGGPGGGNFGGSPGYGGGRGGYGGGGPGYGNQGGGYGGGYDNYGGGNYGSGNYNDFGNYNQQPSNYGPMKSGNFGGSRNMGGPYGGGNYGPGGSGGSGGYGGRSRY
UniProt Q99714: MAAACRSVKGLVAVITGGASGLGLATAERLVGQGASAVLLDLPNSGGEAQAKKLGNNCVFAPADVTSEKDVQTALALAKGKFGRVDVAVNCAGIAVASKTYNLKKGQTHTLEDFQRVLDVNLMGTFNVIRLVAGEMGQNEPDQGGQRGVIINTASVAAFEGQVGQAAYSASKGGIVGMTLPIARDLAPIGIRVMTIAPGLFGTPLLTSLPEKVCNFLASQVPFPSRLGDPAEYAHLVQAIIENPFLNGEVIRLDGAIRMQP
UniProt Q58FG1, whole entry, looked up: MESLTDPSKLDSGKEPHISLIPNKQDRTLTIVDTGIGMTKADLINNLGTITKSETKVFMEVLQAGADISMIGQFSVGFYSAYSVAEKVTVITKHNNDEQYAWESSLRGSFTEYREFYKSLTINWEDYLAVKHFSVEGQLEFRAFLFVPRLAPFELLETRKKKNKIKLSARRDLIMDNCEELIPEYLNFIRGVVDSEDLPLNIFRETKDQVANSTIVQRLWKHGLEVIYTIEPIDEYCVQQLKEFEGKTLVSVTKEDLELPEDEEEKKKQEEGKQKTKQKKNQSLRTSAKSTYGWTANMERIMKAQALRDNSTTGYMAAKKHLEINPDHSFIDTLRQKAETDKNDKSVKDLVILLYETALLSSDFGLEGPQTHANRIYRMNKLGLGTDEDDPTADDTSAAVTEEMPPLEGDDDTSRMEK
UniProt P38646: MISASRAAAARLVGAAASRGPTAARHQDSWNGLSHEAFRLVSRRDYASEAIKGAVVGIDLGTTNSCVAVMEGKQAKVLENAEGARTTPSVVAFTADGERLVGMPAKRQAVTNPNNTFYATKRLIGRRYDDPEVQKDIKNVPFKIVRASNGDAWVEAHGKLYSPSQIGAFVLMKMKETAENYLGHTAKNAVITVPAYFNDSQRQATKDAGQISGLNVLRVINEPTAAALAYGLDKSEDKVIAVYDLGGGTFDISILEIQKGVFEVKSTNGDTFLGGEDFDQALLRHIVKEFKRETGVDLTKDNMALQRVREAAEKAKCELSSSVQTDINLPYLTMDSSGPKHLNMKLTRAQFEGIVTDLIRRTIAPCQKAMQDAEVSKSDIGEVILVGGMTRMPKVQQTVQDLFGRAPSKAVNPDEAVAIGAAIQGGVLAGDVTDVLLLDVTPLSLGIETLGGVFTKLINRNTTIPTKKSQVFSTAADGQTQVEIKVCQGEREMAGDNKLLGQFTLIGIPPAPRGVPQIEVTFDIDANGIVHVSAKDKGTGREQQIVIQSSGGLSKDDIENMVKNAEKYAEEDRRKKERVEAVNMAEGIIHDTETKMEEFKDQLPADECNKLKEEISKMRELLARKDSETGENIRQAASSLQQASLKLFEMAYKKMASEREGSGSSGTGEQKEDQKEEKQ
UniProt Q9P2D0: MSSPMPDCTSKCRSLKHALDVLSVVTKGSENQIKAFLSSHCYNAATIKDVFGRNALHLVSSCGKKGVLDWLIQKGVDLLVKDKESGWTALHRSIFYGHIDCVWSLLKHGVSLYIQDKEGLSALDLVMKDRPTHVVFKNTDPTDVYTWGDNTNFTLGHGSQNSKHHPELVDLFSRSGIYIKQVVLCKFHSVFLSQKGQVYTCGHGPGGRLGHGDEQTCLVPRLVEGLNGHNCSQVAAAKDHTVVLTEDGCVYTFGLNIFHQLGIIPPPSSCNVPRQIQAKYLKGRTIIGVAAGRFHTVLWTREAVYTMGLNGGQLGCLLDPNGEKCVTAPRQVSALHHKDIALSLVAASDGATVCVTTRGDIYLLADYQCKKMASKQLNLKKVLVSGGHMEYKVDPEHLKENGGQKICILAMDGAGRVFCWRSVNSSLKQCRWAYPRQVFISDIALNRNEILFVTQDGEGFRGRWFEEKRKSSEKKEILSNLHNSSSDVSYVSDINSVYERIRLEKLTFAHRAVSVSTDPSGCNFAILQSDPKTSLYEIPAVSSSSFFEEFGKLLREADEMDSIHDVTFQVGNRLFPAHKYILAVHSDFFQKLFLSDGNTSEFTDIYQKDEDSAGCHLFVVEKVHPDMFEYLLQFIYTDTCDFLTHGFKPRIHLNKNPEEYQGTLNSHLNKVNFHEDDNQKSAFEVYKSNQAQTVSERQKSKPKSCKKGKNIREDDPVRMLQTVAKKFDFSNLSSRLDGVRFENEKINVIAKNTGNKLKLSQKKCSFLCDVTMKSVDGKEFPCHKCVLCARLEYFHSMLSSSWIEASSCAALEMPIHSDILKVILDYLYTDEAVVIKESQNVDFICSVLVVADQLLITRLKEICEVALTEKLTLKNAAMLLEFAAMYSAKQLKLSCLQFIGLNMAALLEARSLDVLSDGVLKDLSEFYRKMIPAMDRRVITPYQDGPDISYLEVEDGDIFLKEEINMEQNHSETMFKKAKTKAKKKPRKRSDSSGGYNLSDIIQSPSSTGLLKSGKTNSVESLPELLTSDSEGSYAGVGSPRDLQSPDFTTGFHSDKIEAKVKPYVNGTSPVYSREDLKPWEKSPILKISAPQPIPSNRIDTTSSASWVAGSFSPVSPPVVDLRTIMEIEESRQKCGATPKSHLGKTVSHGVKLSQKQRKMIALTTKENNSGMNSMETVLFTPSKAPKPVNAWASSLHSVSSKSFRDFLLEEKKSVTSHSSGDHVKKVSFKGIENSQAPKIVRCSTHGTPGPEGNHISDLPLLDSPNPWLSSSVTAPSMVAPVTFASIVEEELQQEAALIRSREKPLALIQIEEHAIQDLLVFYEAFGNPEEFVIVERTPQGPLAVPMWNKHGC
UniProt Q9Y547: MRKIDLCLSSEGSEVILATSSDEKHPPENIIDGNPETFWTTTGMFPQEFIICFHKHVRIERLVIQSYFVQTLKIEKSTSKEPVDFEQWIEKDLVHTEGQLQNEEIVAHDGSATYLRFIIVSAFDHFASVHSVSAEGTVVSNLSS
UniProt P51991: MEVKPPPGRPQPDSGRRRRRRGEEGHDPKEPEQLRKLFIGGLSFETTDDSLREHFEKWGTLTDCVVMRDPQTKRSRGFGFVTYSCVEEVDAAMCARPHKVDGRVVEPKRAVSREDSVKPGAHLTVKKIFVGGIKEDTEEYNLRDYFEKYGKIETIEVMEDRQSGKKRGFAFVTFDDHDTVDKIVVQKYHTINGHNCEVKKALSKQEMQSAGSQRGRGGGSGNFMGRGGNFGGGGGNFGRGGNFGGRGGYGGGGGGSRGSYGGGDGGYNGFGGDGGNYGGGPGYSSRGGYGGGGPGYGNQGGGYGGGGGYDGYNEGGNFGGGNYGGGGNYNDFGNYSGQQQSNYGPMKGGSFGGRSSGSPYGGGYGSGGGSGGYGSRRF
UniProt Q92598: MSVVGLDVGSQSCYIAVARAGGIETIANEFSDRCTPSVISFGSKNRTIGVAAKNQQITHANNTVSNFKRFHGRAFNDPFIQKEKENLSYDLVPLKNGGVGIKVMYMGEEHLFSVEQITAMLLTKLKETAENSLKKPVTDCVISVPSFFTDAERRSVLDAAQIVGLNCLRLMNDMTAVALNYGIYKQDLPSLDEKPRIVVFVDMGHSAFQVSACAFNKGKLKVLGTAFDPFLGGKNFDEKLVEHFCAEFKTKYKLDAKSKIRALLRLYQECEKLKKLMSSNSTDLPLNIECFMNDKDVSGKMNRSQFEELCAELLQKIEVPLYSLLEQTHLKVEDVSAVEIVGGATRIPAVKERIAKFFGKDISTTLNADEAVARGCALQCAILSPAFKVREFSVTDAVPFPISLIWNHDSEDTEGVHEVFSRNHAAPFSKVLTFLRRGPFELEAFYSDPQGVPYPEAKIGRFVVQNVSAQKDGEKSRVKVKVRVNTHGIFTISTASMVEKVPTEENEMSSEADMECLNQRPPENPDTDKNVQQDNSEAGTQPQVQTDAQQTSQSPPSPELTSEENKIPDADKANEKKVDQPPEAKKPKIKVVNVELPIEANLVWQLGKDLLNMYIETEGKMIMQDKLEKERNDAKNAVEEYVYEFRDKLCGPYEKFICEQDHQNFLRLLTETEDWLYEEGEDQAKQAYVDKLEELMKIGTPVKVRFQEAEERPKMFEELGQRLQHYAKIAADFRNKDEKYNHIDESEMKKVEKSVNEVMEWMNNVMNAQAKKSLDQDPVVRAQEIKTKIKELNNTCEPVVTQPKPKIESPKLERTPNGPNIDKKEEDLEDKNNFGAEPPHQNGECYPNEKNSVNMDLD
UniProt P34932: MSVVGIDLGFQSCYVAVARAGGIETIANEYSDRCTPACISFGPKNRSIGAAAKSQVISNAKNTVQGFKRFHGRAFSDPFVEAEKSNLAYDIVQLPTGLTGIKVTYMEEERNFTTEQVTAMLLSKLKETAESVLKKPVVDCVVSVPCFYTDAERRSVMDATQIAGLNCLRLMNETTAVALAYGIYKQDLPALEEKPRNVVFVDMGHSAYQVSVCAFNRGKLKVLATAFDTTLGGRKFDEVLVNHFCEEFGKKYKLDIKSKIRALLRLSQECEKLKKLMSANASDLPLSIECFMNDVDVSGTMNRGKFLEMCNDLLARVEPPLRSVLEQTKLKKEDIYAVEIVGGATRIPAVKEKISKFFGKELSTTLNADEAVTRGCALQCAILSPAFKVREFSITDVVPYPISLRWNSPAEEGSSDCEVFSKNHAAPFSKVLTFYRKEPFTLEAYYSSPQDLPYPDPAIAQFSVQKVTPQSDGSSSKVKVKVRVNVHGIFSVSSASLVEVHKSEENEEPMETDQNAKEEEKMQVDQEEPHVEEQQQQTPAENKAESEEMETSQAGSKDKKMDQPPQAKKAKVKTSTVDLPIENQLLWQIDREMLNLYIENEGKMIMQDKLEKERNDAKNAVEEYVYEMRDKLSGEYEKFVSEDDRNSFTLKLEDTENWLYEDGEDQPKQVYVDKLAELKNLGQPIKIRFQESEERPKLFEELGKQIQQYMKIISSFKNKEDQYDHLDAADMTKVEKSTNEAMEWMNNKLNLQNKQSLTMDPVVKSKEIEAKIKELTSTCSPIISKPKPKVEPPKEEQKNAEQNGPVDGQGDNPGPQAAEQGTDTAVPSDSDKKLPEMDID

What was measured:
Assay in all cases: log2 fold change, soluble protein after heating vs DMSO (PISA); higher = thermal stabilisation; K562 cells, 10 uM, 30 min; active = over 0.2 and 3.5 SD of the protein, either way, in both replicates (recomputed)
[1] = compound: CS(=O)(=O)c1ccc(-c2cnc(N)c(C(=O)Nc3ccccc3)n2)cc1
In short: (§1)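 For each measurement, 10 μM compound was applied for 30 min to K562 cells at 2×10^6 cells/mL. Aliquots were heated for 3 min across 48°C-58°C, pooled, and extracted in PBS with 0.5% NP-40 at 4°C; the supernatant after 21,000xg for 90 min was soluble protein. This was quantified by TMTpro 16plex LC-MS/MS with channel sums equalised, and thermal stability was reported relative to control samples from duplicates, on a log2 fold-change scale.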

[2] = compound: C[C@@H](Oc1cc(-c2cnn(C3CCNCC3)c2)cnc1N)c1c(Cl)ccc(F)c1Cl [crizotinib]
In short: as §1

[3] = compound: C[C@@H]1COCCN1C2=NC(=NC(=C2)C3(CC3)S(=O)(=O)C)C4=C5C=CNC5=CC=C4
In short: as §1

[4] = compound: C[C@H](C1=CC=C(C=C1)C(=O)NC2=C3C=CNC3=NC=C2)N
In short: as §1

[5] = compound: C[C@H](Nc1ncnc2nc[nH]c12)c1cc2cccc(Cl)c2c(=O)n1-c1ccccc1 [duvelisib]
In short: as §1

[6] = compound: Cc1cc(Nc2cc(CN3CCOCC3)c3nc(C)c(Cc4ccc(Cl)cc4F)n3n2)n[nH]1 [gandotinib]
In short: as §1

[7] = compound: Cc1cc(Nc2cc(N3CCN(C)CC3)nc(Sc3ccc(NC(=O)C4CC4)cc3)n2)n[nH]1 [tozasertib]
In short: as §1

[8] = compound: Cc1cc(SCc2sc(-c3ccc(C(F)(F)F)cc3)nc2C)ccc1OCC(=O)O
In short: as §1

[9] = compound: Cc1ccc(-n2nc(C(C)(C)C)cc2NC(=O)Nc2ccc(OCCN3CCOCC3)c3ccccc23)cc1 [doramapimod]
In short: as §1

[10] = compound: Cc1ccc(C(=O)N(CCCN)[C@@H](c2nc3cc(Cl)ccc3c(=O)n2Cc2ccccc2)C(C)C)cc1 [ispinesib]
In short: as §1

Measured: log2 fold change

HKDC1 (UniProt Q2TB90)
inactive: [1] -0.034 | [2] 0.058 | [3] 0.066 | [4] -0.082 | [5] 0.103 | [6] -0.145 | [7] 0.022 | [8] -0.014 | [9] -0.019 | [10] 0.04

HSPA4L (UniProt O95757)
inactive: [1] 0.011 | [2] 0.067 | [3] 0.057 | [4] -0.041 | [5] 0.005 | [6] 0.001 | [7] 0.028 | [8] -0.02 | [9] -0.027 | [10] 0.037

HSDL1 (UniProt Q3SXM5)
inactive: [1] -0.002 | [2] 0.042 | [3] 0.058 | [4] -0.062 | [5] 0.065 | [6] -0.041 | [7] 0.003 | [8] -0.041 | [9] 0.047 | [10] 0.042

HMMR isoform 3 (UniProt O75330)
inactive: [1] -0.004 | [2] -0.082 | [3] -0.03 | [4] 0.059 | [5] -0.004 | [6] -0.085 | [7] 0 | [8] 0.088 | [9] 0.044 | [10] -0.081

HYOU1 (UniProt Q9Y4L1)
inactive: [1] -0.025 | [2] 0.018 | [3] -0.028 | [4] 0.076 | [5] -0.05 | [6] 0.028 | [7] 0.022 | [8] 0.032 | [9] 0.029 | [10] -0.003

HNRNPAB isoform 3 (UniProt Q99729)
inactive: [1] -0.064 | [2] 0.018 | [3] -0.213 | [4] 0.227 | [5] -0.1 | [6] 0.17 | [7] 0.012 | [8] -0.038 | [9] 0.033 | [10] -0.069

HMGN5 (UniProt P82970)
inactive: [1] 0.013 | [2] 0.098 | [3] -0.004 | [4] -0.032 | [5] 0.045 | [6] 0.076 | [7] 0.063 | [8] -0.044 | [9] -0.031 | [10] 0.079

HNRNPA2B1 (UniProt P22626)
inactive: [1] -0.146 | [2] 0.035 | [3] -0.444 | [4] 0.224 | [5] -0.122 | [6] 0.181 | [7] 0.04 | [8] 0.028 | [9] 0.041 | [10] -0.113

HPRT1 (UniProt P00492)
inactive: [1] -0.033 | [2] -0.024 | [3] 0.009 | [4] -0.118 | [5] 0.004 | [6] 0.034 | [7] -0.001 | [8] -0.033 | [9] -0.053 | [10] 0.061

HNRNPA1 (UniProt P09651)
inactive: [1] -0.091 | [2] 0.033 | [3] -0.324 | [4] 0.295 | [5] -0.07 | [6] 0.184 | [7] 0.021 | [8] 0.055 | [9] 0.178 | [10] -0.142

HSD17B10 (UniProt Q99714)
inactive: [1] -0.043 | [2] 0.109 | [3] 0.059 | [4] -0.115 | [5] 0.05 | [6] 0.028 | [7] -0.037 | [8] 0.005 | [9] 0.015 | [10] 0.151

HSPG2 (UniProt P98160)
inactive: [1] -0.059 | [2] 0.136 | [3] -0.14 | [4] -0.056 | [5] 0.055 | [6] 0.037 | [7] -0.016 | [8] 0.028 | [9] -0.026 | [10] -0.066

HSD17B4 (UniProt P51659)
inactive: [1] 0.033 | [2] 0.084 | [3] 0.031 | [4] -0.048 | [5] 0.007 | [6] -0.015 | [7] 0.001 | [8] 0.016 | [9] 0.002 | [10] 0.092

HIRIP3 (UniProt Q9BW71)
inactive: [1] -0.01 | [2] 0.056 | [3] 0.08 | [4] -0.068 | [5] -0.017 | [6] 0.007 | [7] 0.019 | [8] 0.02 | [9] -0.016 | [10] -0.003

IDE (UniProt P14735)
inactive: [1] -0.041 | [2] -0.036 | [3] 0.036 | [4] -0.014 | [5] 0.048 | [6] 0.046 | [7] 0.003 | [8] 0.043 | [9] -0.024 | [10] 0

HSP90AA4P (UniProt Q58FG1)
inactive: [1] 0.112 | [2] 0.06 | [3] 0.06 | [4] 0.228 | [5] 0.162 | [6] -0.121 | [7] -0.06 | [8] -0.042 | [9] 0.013 | [10] -0.148

HNRNPLL (UniProt Q8WVV9)
inactive: [1] -0.021 | [2] 0.068 | [3] 0.13 | [4] 0.004 | [5] 0.021 | [6] 0.077 | [7] 0 | [8] 0.224 | [9] -0.068 | [10] 0.033

HK1 isoform 2 (UniProt P19367)
inactive: [1] -0.031 | [2] 0.033 | [3] 0.041 | [4] -0.047 | [5] 0.021 | [6] -0.096 | [7] -0.019 | [8] -0.032 | [9] -0.016 | [10] 0.035

ICAM2 (UniProt P13598)
inactive: [1] 0.033 | [2] 0.051 | [3] 0.013 | [4] -0.183 | [5] 0.018 | [6] 0.017 | [7] -0.023 | [8] -0.072 | [9] 0.005 | [10] -0.091

HINT1 (UniProt P49773)
inactive: [1] 0.033 | [2] 0.082 | [3] 0.16 | [4] -0.148 | [5] 0.112 | [6] 0.008 | [7] 0.053 | [8] -0.029 | [9] -0.085 | [10] 0.13

HNRNPU (UniProt Q00839)
inactive: [1] -0.057 | [2] -0.234 | [3] -0.003 | [4] 0.161 | [5] -0.093 | [6] -0.04 | [7] 0.012 | [8] 0.111 | [9] 0.038 | [10] -0.142

HSPA9 (UniProt P38646)
inactive: [1] -0.034 | [2] -0.01 | [3] 0.015 | [4] -0.022 | [5] -0.005 | [6] -0.008 | [7] -0.008 | [8] -0.04 | [9] 0.012 | [10] -0.063

IBTK (UniProt Q9P2D0)
inactive: [1] -0.148 | [2] -0.055 | [3] -0.362 | [4] 0.306 | [5] -0.075 | [6] 0.119 | [7] 0.048 | [8] 0.046 | [9] 0.225 | [10] -0.311

HTATSF1 (UniProt O43719)
inactive: [1] 0.006 | [2] 0.012 | [3] 0.01 | [4] -0.02 | [5] 0.075 | [6] -0.04 | [7] 0.125 | [8] 0.082 | [9] -0.041 | [10] -0.011

HSPB11 (UniProt Q9Y547)
inactive: [1] 0.024 | [2] 0.007 | [3] 0.025 | [4] -0.022 | [5] 0.128 | [6] -0.243 | [7] 0.017 | [8] 0.048 | [9] 0.004 | [10] 0.111

Looked up one by one from the entries so far, 2 records:
HSPA9 (UniProt P38646)
inactive: [1] -0.034 | [2] -0.01 | [3] 0.015 | [4] -0.022 | [5] -0.005 | [6] -0.008 | [7] -0.008 | [8] -0.04 | [9] 0.012 | [10] -0.063

HNRNPU (UniProt Q00839)
inactive: [1] -0.057 | [2] -0.234 | [3] -0.003 | [4] 0.161 | [5] -0.093 | [6] -0.04 | [7] 0.012 | [8] 0.111 | [9] 0.038 | [10] -0.142

Going on with the list.

HNRNPA3 (UniProt P51991)
inactive: [1] -0.166 | [2] 0.066 | [3] -0.393 | [4] 0.324 | [5] -0.183 | [6] -0.002 | [7] 0.175 | [8] 0.055 | [9] 0.046 | [10] -0.07

HSPH1 (UniProt Q92598)
inactive: [1] 0.026 | [2] 0.04 | [3] -0.003 | [4] -0.036 | [5] 0.01 | [6] -0.079 | [7] 0.041 | [8] 0.037 | [9] -0.048 | [10] 0.043

HSPA4 (UniProt P34932)
inactive: [1] 0.012 | [2] 0.025 | [3] 0.055 | [4] -0.062 | [5] 0.013 | [6] -0.056 | [7] -0.004 | [8] -0.002 | [9] -0.031 | [10] 0.071

HNRNPM (UniProt P52272)
inactive: [1] -0.062 | [2] -0.009 | [3] -0.288 | [4] 0.356 | [5] -0.076 | [6] 0.116 | [7] 0.088 | [8] 0.086 | [9] 0.105 | [10] -0.219
